From patent US20090123563A1 (NOVO NORDISK A/S, priority 2005, published 2009) come the findings set out here.

Data set [1] is described as follows: general procedure: Fmoc solid-phase peptide synthesis; Rink amide AM resin (Novabiochem); DIC/HOAt/HOBt. To be noted: whole synthesis.
Data set [2] is described as follows: general procedure: Fmoc solid-phase peptide synthesis; Rink amide AM resin; DIC/HOAt/HOBt. To be noted: whole synthesis, scale 0.25 mmol.

Take “4-[3-(2H-Tetrazol-5-yl)carbazol-9-ylmethyl]benzoyl-Lys(Arg6-yl)-Arg6-NH2”: in data set [1] (scale 0.82 mmol), the crude mass stood at 2.2 g.

“4-[3-(1H-Tetrazol-5-yl)carbazol-9-ylmethyl]benzoyl-Glu (-Arg6-NH2)-Arg6-NH2”: in data set [1], the isolated yield amounted to 10%.

The substance “H-Arg7-Lys(4-[3-(1H-Tetrazol-5-yl)carbazol-9-ylmethyl]benzoyl)-Arg6-NH2” had a crude mass in data set [2] of 363 mg.

Substance “H-Arg-Lys(Arg-yl)-Lys(Arg-Lys(Arg-yl)-yl)-Lys(Arg-Lys(Arg-yl)-yl)-Lys(4-[3-(2H-tetrazol-5-yl)carbazol-9-ylmethyl]benzoyl)-NH2” gave a crude mass in data set [1] (scale 1 mmol) of 1.5 g.
